Assay results from patent US20090053138.
The exact form of at least one protein or probe is not confirmed. For part of these data: A negative result means that nothing was seen under these conditions.

Chains of the proteins cited; added tags and fusions are not shown. Residues count along the entry.
UniProt P01127, 82-190: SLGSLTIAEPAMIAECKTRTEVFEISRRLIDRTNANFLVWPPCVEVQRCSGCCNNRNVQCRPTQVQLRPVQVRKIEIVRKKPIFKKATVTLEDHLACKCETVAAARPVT

Legend:
PDGF-BB (Homo sapiens) [1] = molecular target: PDGF-BB (Homo sapiens) (UniProt P01127); assay: activity in cells; conditions: 3'-inverted dT, purified recombinant protein, protein details: PeproTech; for IC50: 3T3 proliferation; for functional effect of the aptamer: PS in 5' CpG part and at 3' end, blocks PDGF-BB (R&D Systems) driven ERK phosphorylation in 3T3, variant of ARC124, dose not given here
PDGF-BB (Homo sapiens) [2] = molecular target: PDGF-BB (Homo sapiens) (UniProt P01127); assay: competition with a labelled probe; conditions: HEG spacers, purified recombinant protein, protein details: PeproTech, variant of ARC126
[3] = all deoxy, PEG-6 spacers, single-stranded DNA, variant of ARC126

CAGGCTACGCGTAGAGCAUCATGATCCUG [ARC346]
IC50 (PDGF-BB (Homo sapiens) [1]; 2'-OMe at s1 G9, s2 G5 G7 U10 A12, s3 C5 C6 U7 G8, rest deoxy, PEG-6 spacers, variant of ARC126): 15 nM

ACAGGCTACGCGTAGAGCATCATGATCCTGT [ARC335]
IC50 (PDGF-BB (Homo sapiens) [1]; [3]): 90 nM

CCCAGGCTACGUUUCGTAGAGCAUCAUUUTGATCCTGGG [ARC1016]
IC50 (PDGF-BB (Homo sapiens) [1]; 5'-NH2, 2'-OMe as ARC513, both PEG spacers replaced by mUmUmU, variant of ARC513): 8.5 nM

CAGGCTACGCGTAGAGCATCATGATCCTG [ARC338]
IC50 (PDGF-BB (Homo sapiens) [1]; 2'-OMe at s1 C1 A2 G3 G4, rest deoxy, PEG-6 spacers, variant of ARC126): 1000 nM

CAGGCUACGCGTAGAGCAUCATGATCCUG [ARC405]
IC50 (PDGF-BB (Homo sapiens) [1]; 2'-OMe at s1 U6 G9, s2 G5 G7 U10 C11 A12, s3 C5 C6 U7 G8, rest deoxy, PEG-6 spacers, variant of ARC126): 8.65 nM

CAGGCUACGCGTAGAGCAUCATGATCCUG [ARC365]
IC50 (PDGF-BB (Homo sapiens) [1]; as ARC277 plus 5'-NH2, PEG-6 spacers, variant of ARC277): 6.79 nM

CAGGCUACGCGTAGAGCATCATGATCCUG [ARC344]
IC50 (PDGF-BB (Homo sapiens) [1]; 2'-OMe at s1 U6 G9, s2 G5 G7 A12, s3 C5 C6 U7 G8, rest deoxy, PEG-6 spacers, variant of ARC126): 200 nM

CACAGGCTACGCGTAGAGCATCATGATCCTGTG [ARC363]
IC50 (PDGF-BB (Homo sapiens) [1]; 2'-OMe at s1 G11, s2 G5 G7 A12, rest deoxy, PEG-6 spacers, variant of ARC126): 3.92 nM

GTGAACGTTCGAGCAGGCTACGGCACGTAGAGCATCACCATGATCCTGC [LongCpGARC124]
functional effect of the aptamer (PDGF-BB (Homo sapiens) [1]; single-stranded DNA): active

CAGGCTACGCGTAGAGCATCATGATCCUG [ARC345]
IC50 (PDGF-BB (Homo sapiens) [1]; 2'-OMe at s1 G9, s2 G5 G7 C11 A12, s3 C5 C6 U7 G8, rest deoxy, PEG-6 spacers, variant of ARC126): 13 nM

CAGGCUACGCGTAGAGCAUCATGATCCUG [ARC127]
IC50 (PDGF-BB (Homo sapiens) [1]; as ARC126 plus 5'-40 kDa PEG, HEG spacers, Elk luciferase IC50 about 2 nM, variant of ARC126): 3.45 nM

CCCAGGCTACGCGTAGAGCAUCATGATCCTGGG [ARC516]
IC50 (PDGF-BB (Homo sapiens) [1]; 2'-OMe at s1 G11, s2 G5 G7 U10 C11 A12, s3 C5, rest deoxy, PEG-6 spacers, variant of ARC126): 3.05 nM

CAGGCTACGCGTAGAGCATCATGATCCUG [ARC342]
IC50 (PDGF-BB (Homo sapiens) [1]; 2'-OMe at s1 C8 G9, s2 G5 G7 A12, s3 C5 C6 U7 G8, rest deoxy, PEG-6 spacers, variant of ARC126): 1000 nM

CAGGCUACGCGTAGAGCAUCATGATCCUG [ARC277]
IC50 (PDGF-BB (Homo sapiens) [1]; 2'-OMe at s1 U6 C8 G9, s2 G5 G7 U10 C11 A12, s3 C5 C6 U7 G8, rest deoxy, PEG-6 spacers, variant of ARC126): 8.67 nM

CAGGCUACGCGUAGAGCAUCAUGAUCCUG [ARC300]
IC50 (PDGF-BB (Homo sapiens) [1]; all 2'-OMe, PEG-6 spacers, no affinity listed, synthetic backbone, variant of ARC126): 900 nM

CAGGCTACGCGTAGAGCATCATGATCCUG [ARC341]
IC50 (PDGF-BB (Homo sapiens) [1]; 2'-OMe at s1 G9, s2 G5 G7 A12, s3 C5 C6 U7 G8, rest deoxy, PEG-6 spacers, variant of ARC126): 1000 nM

CACAGGCTACGCGTAGAGCATCATGATCCUGUG [ARC340]
IC50 (PDGF-BB (Homo sapiens) [1]; 2'-OMe at s3 C5 C6 U7 G8 U9 G10, rest deoxy, PEG-6 spacers, variant of ARC126): 867 nM

CAGGCTACGCGTAGAGCAUCATGATCCUG [ARC404]
IC50 (PDGF-BB (Homo sapiens) [1]; 2'-OMe at s1 C8 G9, s2 G5 G7 U10 C11 A12, s3 C5 C6 U7 G8, rest deoxy, PEG-6 spacers, variant of ARC126): 3.89 nM

CAGGCTACGCGTAGAGCATCATGATCCTG [ARC299]
IC50 (PDGF-BB (Homo sapiens) [1]; [3]): 1000 nM

CACAGGCTACGCGTAGAGCATCATGATCCUGUG [ARC364]
IC50 (PDGF-BB (Homo sapiens) [1]; 2'-OMe at s3 C6 U7 G8 U9 G10, rest deoxy, PEG-6 spacers, variant of ARC126): 1720 nM

ACAGGCTACGCGTAGAGCATCATGATCCUGU [ARC339]
IC50 (PDGF-BB (Homo sapiens) [1]; 2'-OMe at s3 C5 C6 U7 G8 U9, rest deoxy, PEG-6 spacers, variant of ARC126): 767 nM

CAGGCUACGCGTAGAGCATCATGATCCUG [ARC406]
IC50 (PDGF-BB (Homo sapiens) [1]; 2'-OMe at s1 U6 C8 G9, s2 G5 G7 C11 A12, s3 C5 C6 U7 G8, rest deoxy, PEG-6 spacers, variant of ARC126): 17.1 nM

CAGCGUACGCGTACCGATUCATGAAGCUG [ARC128]
binding result (PDGF-BB (Homo sapiens) [2]; 2'-F/2'-OMe/deoxy as ARC126 type, scrambled inactive, no effect in 3T3 assay): no binding

CAGGCUACGCGTAGAGCAUCATGATCCUG [ARC407]
IC50 (PDGF-BB (Homo sapiens) [1]; 2'-OMe at s1 U6 C8 G9, s2 G5 G7 U10 A12, s3 C5 C6 U7 G8, rest deoxy, PEG-6 spacers, variant of ARC126): 16.4 nM

CCCAGGCTACGUUUUCGTAGAGCAUCATGATCCTGGG [ARC1013]
IC50 (PDGF-BB (Homo sapiens) [1]; 5'-NH2, 2'-OMe as ARC513, first PEG spacer replaced by mUmUmUmU, second PEG spacer kept, variant of ARC513): 15.4 nM

CCCAGGCTACGCGTAGAGCAUCATGATCCTGGG [ARC514]
IC50 (PDGF-BB (Homo sapiens) [1]; 2'-OMe at s1 G11, s2 G5 G7 U10 C11 A12, s3 G8 G9 G10, rest deoxy, PEG-6 spacers, variant of ARC126): 3.16 nM

CAGGCUACGCGTAGAGCAUCATGATCCUG [ARC308]
binding result (PDGF-BB (Homo sapiens) [2]; as ARC126 plus 5'-30 kDa PEG, 3'-inverted dT, less than two-fold effect vs unPEGylated ARC126): binds

CAGGCUACGCGTAGAGCAUCATGATCCUG [ARC408]
IC50 (PDGF-BB (Homo sapiens) [1]; 2'-OMe at s1 U6 C8 G9, s2 G5 G7 U10 C11 A12, s3 C6 U7 G8, rest deoxy, PEG-6 spacers, variant of ARC126): 28.4 nM

CCCAGGCTACGCGTAGAGCAUCAUUUUTGATCCTGGG [ARC1015]
IC50 (PDGF-BB (Homo sapiens) [1]; 5'-NH2, 2'-OMe as ARC513, second PEG spacer replaced by mUmUmUmU, first PEG spacer kept, variant of ARC513): 10.1 nM

CCCAGGCTACGCGTAGAGCAUCAUUUTGATCCTGGG [ARC1014]
IC50 (PDGF-BB (Homo sapiens) [1]; 5'-NH2, 2'-OMe as ARC513, second PEG spacer replaced by mUmUmU, first PEG spacer kept, variant of ARC513): 10.6 nM

CCCAGGCTACGUUUUCGTAGAGCAUCAUUUUTGATCCTGGG [ARC1017]
IC50 (PDGF-BB (Homo sapiens) [1]; 5'-NH2, 2'-OMe as ARC513, both PEG spacers replaced by mUmUmUmU, variant of ARC513): 14.3 nM

CAGGCTACGCGTAGAGCATCATGATCCUG [ARC362]
IC50 (PDGF-BB (Homo sapiens) [1]; 2'-OMe at s1 G9, s2 G5 G7 A12, s3 C6 U7 G8, rest deoxy, PEG-6 spacers, variant of ARC126): 315 nM

CCCAGGCTACGCGTAGAGCAUCATGATCCTGGG [ARC513]
IC50 (PDGF-BB (Homo sapiens) [1]; 2'-OMe at s1 G11, s2 G5 G7 U10 C11 A12, s3 C5 G8 G9 G10, rest deoxy, PEG-6 spacers, 3.7 in Table 3A/3B, 3.2 in Table 3C, variant of ARC126): 2.07 nM

CAGGCTACGCGTAGAGCATCATGATCCTG [ARC276 (listed as 275 in Table 2)]
IC50 (PDGF-BB (Homo sapiens) [1]; 2'-OMe at s1 G9, s2 G5 G7 A12, s3 G8, rest deoxy, PEG-6 spacers, variant of ARC126): 18 nM

CAGGCTACGCGTAGAGCATCATGATCCUG [ARC337]
IC50 (PDGF-BB (Homo sapiens) [1]; 2'-OMe at s3 C5 C6 U7 G8, rest deoxy, PEG-6 spacers, variant of ARC126): 1000 nM

AACGTTCGAGCAGGCTACGGCACGTAGAGCATCACCATGATCCTGC [CpGARC124short]
functional effect of the aptamer (PDGF-BB (Homo sapiens) [1]; single-stranded DNA): active

CACAGGCTACGCGTAGAGCATCATGATCCTGTG [ARC336]
IC50 (PDGF-BB (Homo sapiens) [1]; [3]): 197 nM

CCCAGGCTACGUUUCGTAGAGCAUCATGATCCTGGG [ARC1012]
IC50 (PDGF-BB (Homo sapiens) [1]; 5'-NH2, 2'-OMe as ARC513, first PEG spacer replaced by mUmUmU, second PEG spacer kept, variant of ARC513): 2.79 nM

CCCAGGCTACGCGTAGAGCAUCATGATCCTGGG [ARC515]
IC50 (PDGF-BB (Homo sapiens) [1]; 2'-OMe at s1 G11, s2 G5 G7 U10 C11 A12, rest deoxy, PEG-6 spacers, variant of ARC126): 4.66 nM

CACAGGCUACGCGTAGAGCAUCATGATCCUGUG [ARC366]
IC50 (PDGF-BB (Homo sapiens) [1]; 2'-OMe at s1 U8 C10 G11, s2 G5 G7 U10 C11 A12, s3 C6 U7 G8 U9 G10, rest deoxy, PEG-6 spacers, variant of ARC126): 5.54 nM

CAGGCUACGCGTAGAGCAUCATGATCCTG [ARC410]
IC50 (PDGF-BB (Homo sapiens) [1]; 2'-OMe at s1 U6 C8 G9, s2 G5 G7 U10 C11 A12, s3 C5 C6 G8, rest deoxy, PEG-6 spacers, variant of ARC126): 6.79 nM

CAGGCUACGCGTAGAGCAUCATGATCCUG [ARC409]
IC50 (PDGF-BB (Homo sapiens) [1]; 2'-OMe at s1 U6 C8 G9, s2 G5 G7 U10 C11 A12, s3 C5 U7 G8, rest deoxy, PEG-6 spacers, variant of ARC126): 7.31 nM
